Drawing on article PMC7862700, this text covers binding signal for 40 sequences.

The list shows a part of the results. The exact form of the protein is not confirmed.

The assay addresses T1, ETS1 (UniProt P14921).
T1 sequence: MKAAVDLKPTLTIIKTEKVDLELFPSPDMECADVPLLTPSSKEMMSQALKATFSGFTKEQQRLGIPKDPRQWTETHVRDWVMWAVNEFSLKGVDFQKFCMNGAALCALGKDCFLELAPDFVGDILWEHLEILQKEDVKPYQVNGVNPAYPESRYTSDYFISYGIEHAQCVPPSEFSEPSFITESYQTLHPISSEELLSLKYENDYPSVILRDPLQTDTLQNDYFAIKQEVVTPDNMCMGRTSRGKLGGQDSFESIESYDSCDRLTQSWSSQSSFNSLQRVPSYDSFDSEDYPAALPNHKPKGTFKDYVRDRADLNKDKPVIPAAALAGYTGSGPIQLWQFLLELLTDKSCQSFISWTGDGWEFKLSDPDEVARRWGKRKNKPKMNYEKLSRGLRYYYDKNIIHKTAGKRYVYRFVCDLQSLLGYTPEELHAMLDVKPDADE
The assay can be described thus: DAPPL (digital affinity profiling via proximity ligation, sequencing). To be noted: 10 mM Tris-HCl pH 7.5, 50 mM NaCl, 1 mM DTT, 4% glycerol, room temperature, 30 min; GST-TFs on glutathione beads, 16-mer random dsDNA library, 0.1% …; high values mean tight binding; double strand, one strand shown; scale: fold enrichment (6-mer frequency, TF over GST control).
With TAATTA, the binding signal turned out to be 1.29.
The result for AGATGC reads 1.
The result for ACTACA reads 1.14.
Then AACCCT, with 1.36; and GCTCCG, with 1.29; and ACATTT, with 1.39.
Regarding ACGCGC, the binding signal is 1.01.
Then AGGAAG, with 1.27.
Then GGGAAA, with 0.992; and ATGCGC, with 1.15.
The result for ACACAA reads 1.26; that for GCAAAT, 1.04; that for CCGTAT, 1.2.
Take AGTGGC: the binding signal turned out to be 1.28.
The result for ACGTAA reads 1.08.
Then ATAAGG, with 1.09; and CAACTG, with 1.2; and CACTCA, with 1.11.
Then CCTTAT, with 1.58; and GGAAAA, with 1.24.
TGTCCT registered a binding signal of 1.52.
Then TTCCAA, with 1.32; and GCTTCT, with 1.56.
Turning to TTTTCG, the binding signal worked out at 1.2.
Then TAATCA, with 1.15.
GTACCC had a binding signal of 1.13.
Sequence CGGTCT had a binding signal of 1.23.
The result for AACATT reads 1.26; that for TATATG, 1.44; that for ATAGGG, 0.955.
In the case of CGACGC, the binding signal is 1.12.
On to TTGCCA, for which the binding signal was found to be 1.18.
Then GTTTGA, with 1.18.
In turn, GCTGTT yielded a binding signal of 1.08.
The result for CGTTTC reads 1.67; that for CACAGC, 1.03; that for ACACGC, 1.11.
Regarding GTGTCC, the binding signal turned out to be 1.12.
Then ACGTTT, with 1.25; and ATATCA, with 1.2.
